In article PMC6072100, “Exploring the links between peptoid antibacterial activity and toxicity” (MedChemComm, 2017):

Test system: Escherichia coli K-12 wild-type strain (W3110/ATCC27325)
Assay type: cell-based
Conditions: for Selectivity Index HaCaT, E. coli: ED50 HaCaT / MIC E. coli; for Selectivity Index HepG2, E. coli: ED50 HepG2 / MIC E. coli; for Average selectivity E. coli: average of selectivity to HaCaT and HepG2, selectivity = toxicity/activity
Protocol: (§1) Escherichia coli K-12 wild-type strain (W3110/ATCC27325, F^–, λ^–, rpoS(Am), rph-1, Inv(rrnD-rrnE)), Pseudomonas aeruginosa PA01 (ATCC 15692) Staphylococcus aureus (3R7089 strain Oxford/ATCC9144) and Staphylococcus epidermidis (laboratory strain from clinical isolate) were selected for bacteriological studies as representative Gram-negative (E. coli and P. aeruginosa) and Gram-positive (S. aureus and S. epidermidis) species. Bacterial cultures were prepared by streaking bacterial strains onto LB agar plates with an inoculation loop and incubated overnight at 37 °C. A single colony was selected and placed in 5 mL of Iso-sensitest broth (Oxoid, ThermoScientific) and incubated with shaking for 16–18 h at 37 °C to provide liquid cultures for testing.
MIC values were obtained according to the protocol described by J. M. Andrews et al.[58] and were conducted in 96-well plates (Sarstedt). Bacteria were grown from overnight cultures in Iso-sensitest broth to an A650nm of 0.07 equivalent to a 0.5 MacFarland standard (240 μM BaCl2 in 0.18 M H2SO4). This culture was diluted ten-fold with Iso-sensitest broth before use. Peptoids were initially dissolved in DMSO (5 mM) and diluted further in Iso-sensitest broth to achieve a concentration range of 4–200 μM using 2-fold serial dilutions. 50 μl of inoculum and 50 μl of peptoid solution were added to each test well (final concentration range of 2–100 μM). Experiments were performed in triplicate. A positive control for bacterial growth contained only the inoculum and Iso-sensitest broth. Other controls contained the inoculum and serial dilutions of ampicillin (from 250 μg mL^–1 to 2 μg mL^–1), serial dilutions of DMSO and the inoculum to confirm no inhibitory effect on bacterial growth, and Iso-sensitest broth alone as a sterile control. […] Quantitative data was attained from absorbance values using a Biotek Synergy H4 plate reader.
Antibacterial MIC determination
as §1, with “(W3110 / ATCC27325, F-, λ-,” for “(W3110/ATCC27325, F^–, λ^–,”, “Oxford / ATCC9144)” for “Oxford/ATCC9144)”, “°C.” for “°C. A single colony was selected and placed in 5 mL of Iso-sensitest broth (Oxoid, ThermoScientific) and incubated with shaking for 16–18 h at 37 °C to provide liquid cultures for testing.”
A single colony was selected and placed in 5 mL of Iso-sensitest broth (Oxoid, ThermoScientific) and incubated with shaking for 16-18 h at 37 °C to provide liquid […]
MIC values were obtained according to the protocol described by J. M. Andrews et al.1 and were conducted in 96-well plates (Sarstedt). Bacteria were grown from overnight cultures in Iso-sensitest broth to an A650nm of 0.07 equivalent to a 0.5 MacFarland standard (240 μM BaCl2 in 0.18 M H2SO4). This culture was diluted ten-fold with Iso-sensitest broth before use. Peptoids were initially dissolved in DMSO (5 mM) and diluted further in Iso-sensitest broth to achieve a concentration range of 4 – 200 µM using 2-fold serial dilutions. 50 μl of inoculum and 50 μl of peptoid solution were added to each test well (final concentration range of 2 – 100 µM). Experiments were performed in triplicate. A positive control for bacterial growth contained only the inoculum and Iso-sensitest broth. Other controls contained the inoculum and serial dilutions of ampicillin (from 250 µg/mL to 2 µg/mL), serial dilutions of DMSO and the inoculum to confirm no inhibitory effect on bacterial growth, and Iso-sensitest broth alone as a sterile control. […]
growth after incubation at 37 °C for 16 h with shaking. Quantitative data was attained from absorbance values using a Biotek Synergy H4 plate reader.

Compound	Selectivity Index HaCaT, E. coli	Selectivity Index HepG2, E. coli	Average selectivity E. coli
C[C@@H](c1ccccc1)N(CC(N)=O)C(=O)CN(C(=O)CN(CCN)C(=O)CN(C(=O)CN(C(=O)CN(CCN)C(=O)CN(C(=O)CN(C(=O)CNCCN)[C@@H](C)c1ccccc1)[C@@H](C)c1ccccc1)[C@@H](C)c1ccccc1)[C@@H](C)c1ccccc1)[C@@H](C)c1ccccc1 [Peptoid 17, (NaeNspeNspe)3]	> 4	> 4	> 4
NCCCCNCC(=O)N(CC(=O)N(CC(=O)N(CCCCN)CC(=O)N(CC(=O)N(CC(=O)N(CCCCN)CC(=O)N(CC(=O)N(CC(=O)N(CCCCN)CC(=O)N(CC(=O)N(CC(N)=O)Cc1ccc(F)cc1)Cc1ccc(F)cc1)Cc1ccc(F)cc1)Cc1ccc(F)cc1)Cc1ccc(F)cc1)Cc1ccc(F)cc1)Cc1ccc(F)cc1)Cc1ccc(F)cc1 [Peptoid 22, (NLysNpfbNpfb)4] (H-[Nlys][N(4-F-Bzl)Gly][N(4-F-Bzl)Gly][Nlys][N(4-F-Bzl)Gly][N(4-F-Bzl)Gly][Nlys][N(4-F-Bzl)Gly][N(4-F-Bzl)Gly][Nlys][N(4-F-Bzl)Gly][N(4-F-Bzl)Gly]-NH2)	4	2	
NCCCCNCC(=O)N(CC(=O)N(CC(=O)N(CCCCN)CC(=O)N(CC(=O)N(CC(=O)N(CCCCN)CC(=O)N(CC(=O)N(CC(N)=O)Cc1ccc(F)cc1)Cc1ccc(F)cc1)Cc1ccc(F)cc1)Cc1ccc(F)cc1)Cc1ccc(F)cc1)Cc1ccc(F)cc1 [Peptoid 23, (NLysNpfbNpfb)3] (H-[Nlys][N(4-F-Bzl)Gly][N(4-F-Bzl)Gly][Nlys][N(4-F-Bzl)Gly][N(4-F-Bzl)Gly][Nlys][N(4-F-Bzl)Gly][N(4-F-Bzl)Gly]-NH2)	> 8	3	
NCCCCNCC(=O)N(CC(=O)N(CC(=O)N(CCCCN)CC(=O)N(CC(=O)N(CC(=O)N(CCCCN)CC(=O)N(CC(=O)N(CC(N)=O)Cc1cccc(F)c1)Cc1cccc(F)c1)Cc1cccc(F)c1)Cc1cccc(F)c1)Cc1cccc(F)c1)Cc1cccc(F)c1 [Peptoid 25, (NLysNmfbNmfb)3]	5		
C[C@@H](c1ccccc1)N(CC(N)=O)C(=O)CN(Cc1ccc(F)cc1)C(=O)CN(CCCCN)C(=O)CN(C(=O)CN(Cc1ccc(F)cc1)C(=O)CN(CCCCN)C(=O)CN(C(=O)CN(Cc1ccc(F)cc1)C(=O)CNCCCCN)[C@@H](C)c1ccccc1)[C@@H](C)c1ccccc1 [Peptoid 27, (NLysNpfbNspe)3]	2	1	2
C[C@@H](c1ccccc1)N(CC(N)=O)C(=O)CN(C(=O)CN(CCCCN)C(=O)CN(Cc1ccc(F)cc1)C(=O)CN(Cc1ccc(F)cc1)C(=O)CN(CCCCN)C(=O)CN(C(=O)CN(C(=O)CN(CCCCN)C(=O)CN(Cc1ccc(F)cc1)C(=O)CN(Cc1ccc(F)cc1)C(=O)CNCCCCN)[C@@H](C)c1ccccc1)[C@@H](C)c1ccccc1)[C@@H](C)c1ccccc1 [Peptoid 28, [(NLysNpfbNpfb)(NLysNspeNspe)]2]	> 17	9	> 13
C[C@@H](c1ccccc1)N(CC(N)=O)C(=O)CN(C(=O)CN(CCCCN)C(=O)CN(Cc1ccc(F)cc1)C(=O)CN(Cc1ccc(F)cc1)C(=O)CN(CCCCN)C(=O)CN(C(=O)CN(C(=O)CNCCCCN)[C@@H](C)c1ccccc1)[C@@H](C)c1ccccc1)[C@@H](C)c1ccccc1 [Peptoid 29, (NLysNspeNspe)(NLysNpfbNpfb)(NLysNspeNspe)]	5	3	4
N=C(N)NCCCCNCC(=O)N(CC(=O)N(CC(=O)N(CCCCNC(=N)N)CC(=O)N(CC(=O)N(CC(=O)N(CCCCNC(=N)N)CC(=O)N(CC(=O)N(CC(=O)N(CCCCNC(=N)N)CC(=O)N(CC(=O)N(CC(N)=O)Cc1ccccc1)Cc1ccccc1)Cc1ccccc1)Cc1ccccc1)Cc1ccccc1)Cc1ccccc1)Cc1ccccc1)Cc1ccccc1 [Peptoid 33, (NhArgNpheNphe)4] (H-[NhArg][Nphe][Nphe][NhArg][Nphe][Nphe][NhArg][Nphe][Nphe][NhArg][Nphe][Nphe]-NH2)	> 17		> 17
C[C@@H](c1ccccc1)N(CC(N)=O)C(=O)CN(C(=O)CN(CCCCNC(=N)N)C(=O)CN(C(=O)CN(C(=O)CN(CCCCNC(=N)N)C(=O)CN(C(=O)CN(C(=O)CN(CCCCN)C(=O)CN(C(=O)CN(C(=O)CNCCCCN)[C@@H](C)c1ccccc1)[C@@H](C)c1ccccc1)[C@@H](C)c1ccccc1)[C@@H](C)c1ccccc1)[C@@H](C)c1ccccc1)[C@@H](C)c1ccccc1)[C@@H](C)c1ccccc1 [Peptoid 41, (NLysNspeNspe)2(NhArgNspeNspe)2] (H-[Nlys][Nspe][Nspe][Nlys][Nspe][Nspe][NhArg][Nspe][Nspe][NhArg][Nspe][Nspe]-NH2)	> 6		> 6
(NhArgNmfbNmfb)4 [Peptoid 36]	2	2	2

Square brackets hold non-standard residues; d marks the D form. Peptide text beside a SMILES is read from it. N(4-F-Bzl)Gly = O=C(O)CNCc1ccc(F)cc1; Nspe = C[C@H](NCC(=O)O)c1ccccc1; NhArg = N=C(N)NCCCCNCC(=O)O; Nphe = O=C(O)CNCc1ccccc1; Nlys = NCCCCNCC(=O)O
